Assay results reported in publication PMC5385498.
Results are given in words; binding and its absence hold for the method and conditions named. In cells and extracts the contact can be indirect. Some results given as binding are weak or reduced against the parent protein; the word gives no strength. Each block holds one molecule with its values, some of them ahead of it.

Chains of the proteins cited; added tags and fusions are not shown.
UniProt Q8TC59: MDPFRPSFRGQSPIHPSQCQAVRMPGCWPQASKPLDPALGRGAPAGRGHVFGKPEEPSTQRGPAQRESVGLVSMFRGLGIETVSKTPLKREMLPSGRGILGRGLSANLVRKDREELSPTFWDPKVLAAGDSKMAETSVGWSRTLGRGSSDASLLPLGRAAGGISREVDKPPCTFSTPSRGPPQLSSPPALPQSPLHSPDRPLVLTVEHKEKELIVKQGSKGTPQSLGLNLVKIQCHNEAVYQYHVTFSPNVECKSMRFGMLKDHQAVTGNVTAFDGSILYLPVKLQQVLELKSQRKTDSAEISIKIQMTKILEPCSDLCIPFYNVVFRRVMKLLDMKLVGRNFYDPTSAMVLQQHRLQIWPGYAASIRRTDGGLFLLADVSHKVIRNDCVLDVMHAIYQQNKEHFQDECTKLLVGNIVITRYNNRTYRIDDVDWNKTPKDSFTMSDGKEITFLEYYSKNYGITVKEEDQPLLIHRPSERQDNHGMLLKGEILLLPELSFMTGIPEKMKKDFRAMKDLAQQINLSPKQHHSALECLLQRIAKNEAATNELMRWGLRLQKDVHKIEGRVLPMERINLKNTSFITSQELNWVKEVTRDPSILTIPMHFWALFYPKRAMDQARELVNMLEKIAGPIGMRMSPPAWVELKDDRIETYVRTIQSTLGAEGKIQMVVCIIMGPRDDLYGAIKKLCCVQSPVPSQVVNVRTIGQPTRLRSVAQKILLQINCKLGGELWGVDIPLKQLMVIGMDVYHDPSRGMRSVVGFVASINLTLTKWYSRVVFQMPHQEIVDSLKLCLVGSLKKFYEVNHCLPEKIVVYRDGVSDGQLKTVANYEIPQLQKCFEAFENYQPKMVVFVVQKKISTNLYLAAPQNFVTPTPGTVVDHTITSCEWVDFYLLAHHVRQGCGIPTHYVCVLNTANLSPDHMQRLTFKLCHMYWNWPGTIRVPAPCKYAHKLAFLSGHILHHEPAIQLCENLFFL

Key:
[1] = molecular target: TBCB (Tubulin cofactor B), endogenous (human (endogenous in HeLa)) (UniProt Q99426); test: co-IP; endogenous proteins of HeLa cells; lysate immunoprecipitated with antibody and protein A + G agarose beads, Western blot
[2] = molecular target: TBCB (Tubulin cofactor B), in vitro translated (UniProt Q99426); test: co-IP; in vitro translated proteins (TNT Quick Coupled system), 20 ul of each mixed in 200 ul binding buffer (20 mM Tris-HCl pH 7.5, 150 mM NaCl, 1 mM dithiothreitol, 0.1% Tween 20, protease inhibitors), 4 °C, 3 h; then coimmunoprecipitation and Western blot
[3] = molecular target: TBCB (Tubulin cofactor B) in cell lysates (UniProt Q99426); test: co-IP; two-step immunoprecipitation
[4] = molecular target: TBCB (Tubulin cofactor B) in cell lysates (UniProt Q99426); test: co-IP; cell lysates (with or without knock-down or overexpression of HILI or HSP90); immunoprecipitated with antibody and protein A + G agarose beads, Western blot
[5] = molecular target: T1, TBCB (Tubulin cofactor B) in cell lysates, Q99426; test: as above; settings: remark: other sources report otherwise
T1 chain: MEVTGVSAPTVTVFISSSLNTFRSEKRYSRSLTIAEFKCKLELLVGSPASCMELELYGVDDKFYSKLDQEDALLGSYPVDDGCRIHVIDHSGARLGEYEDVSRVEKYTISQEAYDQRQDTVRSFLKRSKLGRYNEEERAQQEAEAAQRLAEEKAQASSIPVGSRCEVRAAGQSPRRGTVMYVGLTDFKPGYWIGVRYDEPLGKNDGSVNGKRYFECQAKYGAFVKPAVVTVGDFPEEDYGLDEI

binding [1]: binds
Molecule: HILI (human PIWIL2), endogenous (from UniProt Q8TC59 1-973)

binding [2]: binds
Molecule: HILI (human PIWIL2), in vitro translated (from UniProt Q8TC59 1-973)

binding [3]: binds | binding [4]: binds
Molecule: HILI (human PIWIL2) in cell lysates (from UniProt Q8TC59 1-973)

binding [5]: binds
B1: Gigaxonin in cell lysates, Q9H2C0 1-597 (protein)
chain: MAEGSAVSDPQHAARLLRALSSFREESRFCDAHLVLDGEEIPVQKNILAAASPYIRTKLNYNPPKDDGSTYKIELEGISVMVMREILDYIFSGQIRLNEDTIQDVVQAADLLLLTDLKTLCCEFLEGCIAAENCIGIRDFALHYCLHHVHYLATEYLETHFRDVSSTEEFLELSPQKLKEVISLEKLNVGNERYVFEAVIRWIAHDTEIRKVHMKDVMSALWVSGLDSSYLREQMLNEPLVREIVKECSNIPLSQPQQGEAMLANFKPRGYSECIVTVGGEERVSRKPTAAMRCMCPLYDPNRQLWIELAPLSMPRINHGVLSAEGFLFVFGGQDENKQTLSSGEKYDPDANTWTALPPMNEARHNFGIVEIDGMLYILGGEDGEKELISMECYDIYSKTWTKQPDLTMVRKIGCYAAMKKKIYAMGGGSYGKLFESVECYDPRTQQWTAICPLKERRFGAVACGVAMELYVFGGVRSREDAQGSEMVTCKSEFYHDEFKRWIYLNDQNLCIPASSSFVYGAVPIGASIYVIGDLDTGTNYDYVREFKRSTGTWHHTKPLLPSDLRRTGCAALRIANCKLFRLQLQQGLFRIRVHSP
